Among all 330,000 compounds or so, about 7,700 (2.3%) were called active. The inconclusive results got no clear call from the source; some entries with a clear call stand among them for comparison. The call rests on the fitted dose curve; in most records, active means well fitted inhibition curve with a large enough effect; inconclusive means small, poorly fitted or top-dose-only effect, or effect the other way; inactive means flat fitted curve, though single readings scatter. Where the call is inconclusive, the potency comes from a doubtful curve fit.
assay: qHTS screen for small molecules that inhibit ELG1-dependent DNA repair in human embryonic kidney (HEK293T) cells expressing luciferase-tagged ELG1; conditions: HEK293T ELG1-luciferase reporter, luminescence, 16 h, DNA damage induced by 5-fluorouridine; series mostly up to 46.1 µM; further: nearly all actives have a fitted effect of over 55% in size
How it was run: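 HEK293T cells expressing luciferase-tagged ELG1 (2,000/well) received 5-Fluorouridine plus compound or DMSO for 16 hr at 37 °C. Luciferase was read by ONE-Glo luminescence after 30 min at room temperature.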
Potency means the concentration at half of the fitted maximal effect.

For `CCNc1nc(Oc2ccc(=O)n(C)n2)nc(N2CCOCC2)n1`, which Potency is on record?
Its Potency is inconclusive: 23.1 µM [activator, partial curve].

For `Cc1ccc(O)c(N/C=C/C(=O)c2ccc(F)cc2)c1`, which Potency is on record?
Its Potency is inconclusive: 20.6 µM [activator, partial curve].

Which Potency does the source give for `Cn1ccc(C(=O)NC(=S)Nc2ccc([N+](=O)[O-])cc2O)n1` here?
The Potency was inconclusive: 18.3 µM [activator, partial curve].

For `COc1ccccc1NC(=O)c1oc2ccccc2c1NC(=O)c1ccco1`, which Potency is on record?
The Potency was inconclusive: 5.17 µM [inhibitor, full curve].

For `O=C(CSc1ccccc1F)NC(=O)c1ccccc1Br`, which Potency is on record?
The Potency was inconclusive: 23.1 µM [activator, partial curve, poor fit].

For `COc1ccc(N2CCN(C(CNS(=O)(=O)c3ccccc3)c3ccccc3)CC2)cc1` (stereo not drawn), which Potency is on record?
The Potency was “inactive”.

For `Cc1nc(C)c(C(=O)N/N=C/c2cc(Br)ccc2O)s1`, which Potency is on record?
The Potency was inconclusive: 5.8 µM [inhibitor, single point].

For `Cc1ccc(/C=N/NC(=O)CCCOc2ccc(Cl)cc2Cl)cc1`, which Potency is on record?
The Potency was “inactive”.

For `CC(C)c1ccc(/C=N/NC(=O)c2ccccn2)cc1`, which Potency is on record?
The Potency was inconclusive: 0.411 µM [activator, full curve].

For `CC1(C)CC(=O)C2=C(C1)OC(N)=C(C#N)[C@@H]2c1ccccc1[N+](=O)[O-]`, which Potency is on record?
Its Potency is “inactive”.

Which Potency does the source give for `COc1ccc(OCC(O)CNC(=O)Nc2cc(F)ccc2C)cc1` (stereo not drawn) here?
Its Potency is inconclusive: 32.6 µM [inhibitor, partial curve, poor fit].

With `COc1ccccc1NC(=O)c1ccc(NC(=O)CSc2n[nH]c(N)n2)cc1` as the compound, how does the Potency read?
The Potency was “inactive”.

With `Cc1noc(NS(=O)(=O)c2ccc(N/C=C\C(=O)c3ccc4c(c3)OCO4)cc2)c1C` as the compound, how does the Potency read?
Its Potency is inconclusive: 20.6 µM [activator, single point].

With `O=c1oc(-c2ccc([N+](=O)[O-])cc2)nc2ccccc12` as the compound, how does the Potency read?
The Potency was “inactive”.

Which Potency does the source give for `COc1ccc(-c2cc(C(=O)NN3CCOCC3)c3ccccc3n2)cc1OC` here?
The Potency was inconclusive: 13 µM [inhibitor, partial curve].

Which Potency does the source give for `O=C(CNC(=O)c1ccccc1)NCC(c1ccco1)N1CCCC1` (stereo not drawn) here?
The Potency was inconclusive: 4.61 µM [activator, partial curve, poor fit].

With `CC(=O)N1CC=C2C(C#N)=C(N)C(C#N)(C#N)[C@H](c3ccoc3)[C@H]2C1` as the compound, how does the Potency read?
Its Potency is “inactive”.

With `CCOC(=O)c1sc(Nc2nc3cc4c(cc3s2)OCO4)cc1C` as the compound, how does the Potency read?
Its Potency is inconclusive: 29.1 µM [inhibitor, single point].

Which Potency does the source give for `CC(=O)c1ccc(N2CCN(C(=O)c3ccco3)CC2)c(F)c1` here?
Its Potency is inconclusive: 20.6 µM [activator, partial curve, poor fit].

For `C#CCOCCOCCOCCNc1nc(N2CCN(C(=O)[C@H](CCCCN)n3cc(CN)nn3)CC2)nc(N2CCN(C(=O)[C@H](CC(N)=O)n3cc(C(N)[C@H](C)CC)nn3)CC2)n1` (stereo partly drawn), which Potency is on record?
Its Potency is inconclusive: 16.4 µM [activator, partial curve, poor fit].

Which Potency does the source give for `COc1cccc(NC(=O)CCc2c(C)nn(-c3ccc(N4CCOCC4)nn3)c2C)c1` here?
Its Potency is inconclusive: 32.6 µM [activator, partial curve, poor fit].

With `O=C(COc1ccccc1)NCc1n[nH]c(=S)n1-c1ccccc1` as the compound, how does the Potency read?
Its Potency is “inactive”.

With `Cc1ccc(-c2csc(NC(=O)CSc3nc(C)cc(=O)[nH]3)n2)cc1` as the compound, how does the Potency read?
The Potency was inconclusive: 29.1 µM [activator, single point].

Which Potency does the source give for `O=C(CSc1nc2ccccc2c(=O)n1CCCO)NCc1ccccc1` here?
The Potency was inconclusive: 6.51 µM [inhibitor, single point].

With `COc1ccc(S(=O)(=O)N2CCCCC2)cc1NC(=O)c1ccc2c(c1)OCO2` as the compound, how does the Potency read?
Its Potency is “inactive”.

Which Potency does the source give for `CCOC(=O)/C=C1\SCC(=O)N1CC(=O)Nc1cccc(F)c1` here?
Its Potency is “inactive”.

With `NC(=O)c1ccc(SCC(=O)OCC(=O)N2CCCC2=O)c([N+](=O)[O-])c1` as the compound, how does the Potency read?
Its Potency is inconclusive: 4.61 µM [activator, partial curve, poor fit].

Which Potency does the source give for `O=C(CC12CC3CC(CC(C3)C1)C2)N/N=C/c1ccc([N+](=O)[O-])o1` here?
The Potency was inconclusive: 20.6 µM [inhibitor, partial curve, poor fit].

Which Potency does the source give for `Cc1cc(C)cc(N2Cc3ccccc3C2)c1` here?
Its Potency is inconclusive: 23.1 µM [activator, single point].

For `O=C1NC(=Nc2ccccc2)S/C1=C\c1cccnc1`, which Potency is on record?
Its Potency is “inactive”.

Which Potency does the source give for `O=C(CN1C(=O)CSC1=O)NCc1ccccc1` here?
Its Potency is inconclusive: 13 µM [activator, single point].

For `O=Cc1ccc(OCc2cn3ccccc3n2)cc1`, which Potency is on record?
The Potency was inconclusive: 13 µM [activator, partial curve].

For `O=C(NC(=S)Nc1ccc(CN2CCOCC2)cc1)c1ccc2c(c1)OCCO2`, which Potency is on record?
Its Potency is inconclusive: 23.1 µM [inhibitor, single point].

For `O=c1cc(-c2ccc3c(c2)OCCO3)oc2ccc(Cl)cc12`, which Potency is on record?
The Potency was inconclusive: 1.46 µM [activator, full curve].

For `Cc1ccc(Nc2ccccc2N)cc1`, which Potency is on record?
The Potency was inconclusive: 23.1 µM [activator, single point].

With `O=C(Nc1ccc(NC(=O)c2ccccn2)cc1)C(=O)Nc1ccc2c(c1)OCCO2` as the compound, how does the Potency read?
Its Potency is inconclusive: 6.51 µM [activator, partial curve].

For `COc1ccc(NC(=O)c2ccc(-c3ccc([N+](=O)[O-])cc3)o2)cc1OC`, which Potency is on record?
Its Potency is inconclusive: 16.4 µM [inhibitor, single point].

Which Potency does the source give for `CN(C)CCNC(=O)CN1C(=O)COc2ccc(C(C)(C)C)cc21` here?
Its Potency is “inactive”.

Which Potency does the source give for `O=C(CCOc1ccccc1)N1CCN(c2ccc(O)cc2)CC1` here?
Its Potency is inconclusive: 6.51 µM [inhibitor, single point].

Which Potency does the source give for `O=C(NCCCn1ccnc1)c1cc(-c2cccc(O)c2)on1` here?
Its Potency is inconclusive: 29.1 µM [activator, single point].

With `Nc1nc(N)c(N=O)c(OCC2CCCCC2)n1` as the compound, how does the Potency read?
Its Potency is inconclusive: 2.59 µM [activator, partial curve].

With `Cc1cccc(-n2ncc3c(NCc4ccco4)ncnc32)c1` as the compound, how does the Potency read?
Its Potency is inconclusive: 2.91 µM [activator, single point].

With `CCOC(=O)c1cnn(-c2ccc(C(F)(F)F)cn2)c1N` as the compound, how does the Potency read?
The Potency was inconclusive: 20.6 µM [activator, partial curve].

For `CCc1cccc2c(C(=O)CSc3nncn3-c3ccccc3OC)c[nH]c12`, which Potency is on record?
Its Potency is inconclusive: 29.1 µM [inhibitor, single point].

For `CC(=O)N(C)c1ccc(NC(=O)C(Sc2ccccc2)c2ccccc2)cc1` (stereo not drawn), which Potency is on record?
Its Potency is inconclusive: 13 µM [activator, partial curve, poor fit].

With `CSc1ccc(/C=C/C(=O)OCC(=O)NC2CCS(=O)(=O)C2)cc1` (stereo not drawn) as the compound, how does the Potency read?
The Potency was “inactive”.

Which Potency does the source give for `CC1=CC(=O)C(C(C)C)=C/C1=N/OS(=O)(=O)c1ccccc1` here?
The Potency was inconclusive: 29.1 µM [inhibitor, single point].

For `CCCOC1CCCN(C(=O)CCc2nnc(-c3ccc4c(c3)OCO4)o2)C1` (stereo not drawn), which Potency is on record?
Its Potency is inconclusive: 20.6 µM [activator, partial curve].

For `CCNC(=S)N(Cc1cc2cccc(C)c2[nH]c1=O)C1CCCC1`, which Potency is on record?
The Potency was inconclusive: 23.1 µM [activator, partial curve, poor fit].

With `COc1nc(NCCN2CCOCC2)nc(Nc2ccc([N+](=O)[O-])cc2)n1` as the compound, how does the Potency read?
Its Potency is inconclusive: 11.6 µM [inhibitor, partial curve].

With `CNC(=O)N(O)C1N(/N=C/c2ccccc2F)C(=S)SC1(C)C` (stereo not drawn) as the compound, how does the Potency read?
The Potency was “inactive”.

Which Potency does the source give for `CC(CCc1ccccc1)NC(=O)C(=O)c1c[nH]c2ccccc12` (stereo not drawn) here?
The Potency was “inactive”.

Which Potency does the source give for `CCCc1ccc(C(=O)CCC(=O)O)cc1` here?
The Potency was inconclusive: 23.1 µM [activator, single point].

Which Potency does the source give for `CCC(C)Sc1cc(-c2nc3cc(C)ccn3c2NC2CCCCC2)ccc1OC` (stereo not drawn) here?
The Potency was inconclusive: 20.6 µM [inhibitor, single point].

With `O=C(NCc1ccccc1)NCC12CC3CC(CC(C3)C1)C2` as the compound, how does the Potency read?
Its Potency is “inactive”.

For `COc1ccc(CNC(=O)c2noc3c2CCCCC3)cc1`, which Potency is on record?
Its Potency is inconclusive: 20.6 µM [activator, partial curve].

With `Cc1cc(=O)oc(C)c1C(=O)Nc1cnc2ccccc2c1` as the compound, how does the Potency read?
Its Potency is inconclusive: 29.1 µM [activator, partial curve, poor fit].

With `NC(N)=Nc1nc2ccccc2o1` as the compound, how does the Potency read?
The Potency was “inactive”.

For `Cc1ccc2nc(-c3ccc(S(=O)(=O)N4CCOCC4)cc3)cn2c1`, which Potency is on record?
The Potency was inconclusive: 20.6 µM [activator, single point].

With `CCNC(=O)c1c(NC(C)=O)sc2c1CCCC2` as the compound, how does the Potency read?
Its Potency is “inactive”.

With `O=C(NCc1cccc(Cl)c1)c1cccc(S(=O)(=O)N2CCCC2)c1` as the compound, how does the Potency read?
The Potency was inconclusive: 29.1 µM [inhibitor, single point].

Which Potency does the source give for `COc1ccc(S(=O)(=O)N2CCCCCC2)cc1` here?
The Potency was “inactive”.

For `O=C(NC1CCCCCC1)c1cc2ccccc2oc1=O`, which Potency is on record?
Its Potency is inconclusive: 6.51 µM [activator, partial curve].

Which Potency does the source give for `Cc1noc(C)c1S(=O)(=O)N(C)C[C@H]1Oc2ccc(NC(=O)C3CCCCC3)cc2C(=O)N([C@H](C)CO)C[C@@H]1C` here?
Its Potency is “inactive”.

For `Nc1ccccc1-c1nc2ccccc2s1`, which Potency is on record?
The Potency was inconclusive: 16.4 µM [activator, partial curve].

Which Potency does the source give for `C=CC[C@@H](CC(=O)N[C@@H](CO)Cc1ccccc1)C(=O)NC[C@@H](OC(=O)[C@@H](CC=C)CC(=O)OC(C)(C)C)c1ccccc1` here?
The Potency was “inactive”.

Which Potency does the source give for `CC[C@]12c3[nH]c4cc(-c5ccco5)ccc4c3CCN1C(=O)[C@@H](CC(=O)NC/C=C(\C)CCC=C(C)C)C[C@@H]2C(=O)N1CCN(C(=O)c2ccco2)CC1` here?
The Potency was inconclusive: 23.1 µM [inhibitor, partial curve].

Which Potency does the source give for `Cc1cnc(NC(=O)COc2ccc3c(c2)CCC3)s1` here?
Its Potency is inconclusive: 2.31 µM [activator, partial curve].
